Data taken from US20250270215A1, “IMIDAZOLE DERIVATIVES AS ALK5 INHIBITORS” (CHIESI FARMACEUTICI S.P.A., priority 2022, published 2025).
Some entries share one result that the patent states for a list of compounds.

Protein sequences, listed by entry. Tags and fused reporters are not part of them. Residues count along the entry.
UniProt P36897, 80-503 limits assumed: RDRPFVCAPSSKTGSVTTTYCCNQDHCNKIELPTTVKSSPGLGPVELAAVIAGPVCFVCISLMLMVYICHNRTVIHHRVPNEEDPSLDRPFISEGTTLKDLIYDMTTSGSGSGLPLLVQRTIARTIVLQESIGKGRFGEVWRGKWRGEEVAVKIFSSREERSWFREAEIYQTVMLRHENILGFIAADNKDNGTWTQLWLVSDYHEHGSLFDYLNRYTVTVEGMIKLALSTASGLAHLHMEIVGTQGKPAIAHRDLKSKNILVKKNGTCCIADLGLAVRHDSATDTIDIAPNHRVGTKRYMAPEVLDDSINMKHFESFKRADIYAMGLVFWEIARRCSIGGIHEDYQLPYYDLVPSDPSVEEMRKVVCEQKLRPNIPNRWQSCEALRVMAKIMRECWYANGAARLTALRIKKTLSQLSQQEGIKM

Target: human ALK5 (Homo sapiens (Human), UniProt P36897)
Experiment: ADP-GLO Kinases assay (ALK5 enzymatic activity)
Type: biochemical
Settings: purified recombinant human ALK5 2.6 nM, TGFβ1 peptide substrate, 25° C., 150 min incubation, ADP-Glo detection
Protocol: The enzymatic activity of compounds of the present invention was monitored measuring the formation of ADP using the ADP-GLO Kinases assay. Following the incubation of the purified enzyme, a substrate and ATP, the produced ADP was converted into ATP, which in turn was converted into light by Ultra-Glo Luciferase. The luminescent signal positively correlated with ADP amount and kinase activity. Briefly, the kinase reaction was performed by incubating 2.6 nM of the purified, commercially available human ALK5 (recombinant TGF β1 N-term GST-tagged, 80-end), a final concentration of TGFβ1 peptide 94.5 μM (Promega, T36-58) and ultra-pure ATP (Promega V915B). The ATP concentration was set at the Km value (concentration of substrate which permits the enzyme to achieve half maximal velocity (Vmax)) of ALK5 (5 μM). All reactions/incubations were performed at 25° C. Compound and ALK5 kinase were mixed and incubated for 15 mins. Reactions were initiated by addition of ATP at a final concentration in the assay of 0.83 μM. After an incubation of 150 min, the reaction was stopped, and ADP production detected with ADP-Glo kit according to manufacturer's indications. The assay was performed in 384-well format and was validated using a selection of reference compounds that was tested in 11 point concentration-response curve.

Row | Molecule | IC50 [nM]
1 | Cc1cccc(-c2nc3n(c2-c2cc4cnccc4s2)CC(CO)N3)n1 (single isomer, unassigned) [Example 1, [6-(6-Methylpyridin-2-yl)-5-{thieno[3,2-c]pyridin-2-yl}-1H,2H,3H-imidazo[1,2-a][1,3]diazol-2-yl]methanol] | < 1
2 | N-methyl-6-(6-methylpyridin-2-yl)-5-{thieno[3,2-b]pyridin-2-yl}-1H,2H,3H-imidazo[1,2-a][1,3]diazole-2-carboxamide [Example 19] | < 1
